Reference: article PMC9870996
No constants are given. Whether binding was seen depends on the method and setting. Binding seen in cells or lysates may run through a third protein. Some results given as binding are weak or reduced against the parent protein; the word gives no strength.

Protein sequences, listed by entry. Tags and fused reporters are not part of them.
UniProt Q8NET8: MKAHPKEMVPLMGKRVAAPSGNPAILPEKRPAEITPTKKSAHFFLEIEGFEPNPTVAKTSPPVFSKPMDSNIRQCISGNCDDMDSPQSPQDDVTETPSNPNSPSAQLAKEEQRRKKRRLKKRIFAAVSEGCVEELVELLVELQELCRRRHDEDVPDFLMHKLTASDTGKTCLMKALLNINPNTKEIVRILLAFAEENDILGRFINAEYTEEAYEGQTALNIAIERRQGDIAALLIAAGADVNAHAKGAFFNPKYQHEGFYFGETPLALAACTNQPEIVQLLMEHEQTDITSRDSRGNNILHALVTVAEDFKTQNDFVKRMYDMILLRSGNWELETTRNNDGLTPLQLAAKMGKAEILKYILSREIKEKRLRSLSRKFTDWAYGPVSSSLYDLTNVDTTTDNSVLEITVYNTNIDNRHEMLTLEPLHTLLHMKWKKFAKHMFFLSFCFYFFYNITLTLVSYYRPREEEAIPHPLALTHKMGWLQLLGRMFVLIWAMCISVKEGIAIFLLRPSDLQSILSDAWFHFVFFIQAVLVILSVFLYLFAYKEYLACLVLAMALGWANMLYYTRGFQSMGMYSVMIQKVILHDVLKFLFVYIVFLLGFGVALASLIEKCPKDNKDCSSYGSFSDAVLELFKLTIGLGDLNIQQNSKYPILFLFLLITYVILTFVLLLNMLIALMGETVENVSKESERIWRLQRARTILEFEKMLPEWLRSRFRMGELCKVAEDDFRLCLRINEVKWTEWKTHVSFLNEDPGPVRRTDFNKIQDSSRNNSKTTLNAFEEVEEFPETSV

Target: T1, human anoctamin1 (ANO1) (human) (UniProt Q5XXA6)
T1 sequence: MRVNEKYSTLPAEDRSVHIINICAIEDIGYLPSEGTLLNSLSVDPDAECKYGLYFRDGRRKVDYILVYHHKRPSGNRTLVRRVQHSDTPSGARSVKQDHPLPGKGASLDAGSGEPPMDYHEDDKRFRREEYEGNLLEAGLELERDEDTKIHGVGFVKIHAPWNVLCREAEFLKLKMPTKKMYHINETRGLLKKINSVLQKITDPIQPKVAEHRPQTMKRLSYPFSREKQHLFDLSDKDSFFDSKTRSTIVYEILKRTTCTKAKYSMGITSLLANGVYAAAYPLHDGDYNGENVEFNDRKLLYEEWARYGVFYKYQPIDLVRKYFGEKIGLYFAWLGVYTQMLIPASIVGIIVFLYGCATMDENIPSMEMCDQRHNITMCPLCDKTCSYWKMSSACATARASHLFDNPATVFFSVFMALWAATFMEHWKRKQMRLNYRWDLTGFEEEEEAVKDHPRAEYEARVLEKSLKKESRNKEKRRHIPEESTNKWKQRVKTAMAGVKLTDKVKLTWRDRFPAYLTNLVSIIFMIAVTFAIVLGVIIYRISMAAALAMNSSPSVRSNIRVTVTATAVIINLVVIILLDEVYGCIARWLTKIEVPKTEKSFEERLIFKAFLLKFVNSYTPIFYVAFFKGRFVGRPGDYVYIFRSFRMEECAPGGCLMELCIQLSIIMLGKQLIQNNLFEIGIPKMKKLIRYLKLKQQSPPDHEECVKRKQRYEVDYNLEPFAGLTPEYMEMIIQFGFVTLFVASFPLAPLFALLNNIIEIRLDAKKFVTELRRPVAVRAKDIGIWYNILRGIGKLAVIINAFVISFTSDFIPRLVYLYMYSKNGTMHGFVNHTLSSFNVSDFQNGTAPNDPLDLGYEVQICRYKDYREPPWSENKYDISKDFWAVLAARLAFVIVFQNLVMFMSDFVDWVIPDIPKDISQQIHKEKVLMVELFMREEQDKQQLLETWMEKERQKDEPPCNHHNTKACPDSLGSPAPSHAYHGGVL
Assay: co-IP; lysate of transfected HEK293T cells (1% Triton X-100, 150 mM NaCl, 10 mM Tris-HCl, 1 mM EDTA, pH 7.5); precipitated overnight with anti-ANO1 or anti-TRPV3 antibody and protein G Mag Sepharose; blotted with anti-TRPV3

binding: binds
Substance: human TRPV3 (transient receptor potential vanilloid 3) (from UniProt Q8NET8 1-790)
